Some of the results follow. Repeats are few or missing, and single values can be far off.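 Cells were imaged in 1,536-well plates, and nuclei stained with an antibody against cleaved PARP were counted against all DNA-stained nuclei to give the apoptosis fraction. Screening doses were chosen to leave most cells alive, and resting and induced cleaved-PARP levels differ strongly between cell lines.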
system: COLO800; assay: cleaved PARP positive nuclei fraction relative to DMSO control; melanoma cells; higher = more apoptosis; conditions: library dose: low library concentration; 72 h

Row | SMILES | cleaved PARP positive nuclei fraction [%]
1 | Nc1ccn([C@@H]2O[C@H](CO)[C@@H](O)C2(F)F)c(=O)n1 [gemcitabine] + O=S(=O)(c1ccccc1)N(CC(F)(F)F)c1ccc(C(O)(C(F)(F)F)C(F)(F)F)cc1 [T0901317] (first compound 0.0004 µM, partner dose 1.4 µM) | 74
2 | Nc1ncn([C@H]2C[C@H](O)[C@@H](CO)O2)c(=O)n1 [decitabine] + O=C(Nc1ccccc1)c1cc([N+](=O)[O-])ccc1Cl [GW9662] (first compound 0.1 µM, partner dose 2 µM) | 51.7
3 | Nc1nc(F)nc2c1ncn2[C@@H]1O[C@H](CO)[C@@H](O)[C@@H]1O [fludarabine] + Cn1cc(/C=C2\C(=O)Nc3cccnc32)c2ccccc21 [GW441756] (first compound 0.2 µM, partner dose 0.4 µM) | 46.8
4 | Nc1ccn([C@@H]2O[C@H](CO)[C@@H](O)C2(F)F)c(=O)n1 [gemcitabine] + CCN(CC)CCCCNc1ncc2cc(-c3cc(OC)cc(OC)c3)c(NC(=O)NC(C)(C)C)nc2n1 [PD173074] (first compound 0.0004 µM, partner dose 0.1 µM) | 172
5 | CCCS(=O)(=O)Nc1ccc(F)c(C(=O)c2c[nH]c3ncc(Cl)cc23)c1F + COc1ccc(COc2ccc(Cc3cnc(N)nc3N)cc2OC)cc1 [GW2580] (first compound 0.08 µM, partner dose 1 µM) | 66.7
6 | Nc1ccn([C@@H]2O[C@H](CO)[C@@H](O)C2(F)F)c(=O)n1 [gemcitabine] + CCc1ccc(CCOc2ccc(CC3SC(=O)NC3=O)cc2)nc1 [pioglitazone] (first compound 0.0004 µM, partner dose 2 µM) | 59.5
7 | Nc1ncn([C@H]2C[C@H](O)[C@@H](CO)O2)c(=O)n1 [decitabine] + Oc1cc(-c2nc(-c3ccccc3)[nH]c2-c2ccncc2)ccc1Cl [L779450] (first compound 0.1 µM, partner dose 0.2 µM) | 36.1
8 | CNC(=O)c1cc(Oc2ccc(NC(=O)Nc3ccc(Cl)c(C(F)(F)F)c3)cc2)ccn1 [sorafenib] + Cc1cc([N+](=O)[O-])ccc1NS(=O)(=O)c1cc(Cl)ccc1Cl [FH535] (first compound 0.4 µM, partner dose 1 µM) | 42
9 | O=C(O)c1ccc2c(c1)nc(Nc1cccc(Cl)c1)c1ccncc12 + N#Cc1c(O)c2c(-c3ccc(-c4ccccc4O)cc3)csc2[nH]c1=O [A769662] (first compound 0.4 µM, partner dose 2 µM) | 42.4
10 | Nc1ccn([C@@H]2O[C@H](CO)[C@@H](O)C2(F)F)c(=O)n1 [gemcitabine] + COc1ccc(COc2ccc(Cc3cnc(N)nc3N)cc2OC)cc1 [GW2580] (first compound 0.0004 µM, partner dose 1 µM) | 121
11 | Nc1ncn([C@H]2C[C@H](O)[C@@H](CO)O2)c(=O)n1 [decitabine] + O=C1NC(=O)/C(=C/c2ccc(-c3ccc(F)cc3O)o2)S1 [AS252424] (first compound 0.1 µM, partner dose 1 µM) | 52.2
12 | CCCS(=O)(=O)Nc1ccc(F)c(C(=O)c2c[nH]c3ncc(Cl)cc23)c1F + Cn1cc(/C=C2\C(=O)Nc3cccnc32)c2ccccc21 [GW441756] (first compound 0.08 µM, partner dose 0.4 µM) | 81.7
13 | Cc1cc(Nc2cc(N3CCN(C)CC3)nc(/C=C/c3ccccc3)n2)n[nH]1 + O=c1cc(-c2cccc3c2Sc2ccccc2S3)oc(N2CCOCC2)c1 [KU55933] (first compound 0.04 µM, partner dose 1 µM) | 43.8
14 | Cn1c(=O)n(-c2ccc(C(C)(C)C#N)cc2)c2c3cc(-c4cnc5ccccc5c4)ccc3ncc21 + COc1cc2ncnc(Nc3ccc(Oc4ccccc4)cc3)c2cc1OC [SrcI1] (first compound 0.004 µM, partner dose 2 µM) | 168
15 | Cc1cc(Nc2cc(N3CCN(C)CC3)nc(/C=C/c3ccccc3)n2)n[nH]1 + O=S(=O)(c1ccccc1)N(CC(F)(F)F)c1ccc(C(O)(C(F)(F)F)C(F)(F)F)cc1 [T0901317] (first compound 0.04 µM, partner dose 1.4 µM) | 202
16 | CCCS(=O)(=O)Nc1ccc(F)c(C(=O)c2c[nH]c3ncc(Cl)cc23)c1F + O=C1NC(=O)/C(=C/c2ccc(-c3ccc(F)cc3O)o2)S1 [AS252424] (first compound 0.08 µM, partner dose 1 µM) | 66.3

Quoted at random: three records from the list, in no set order.
Row | SMILES | cleaved PARP positive nuclei fraction [%]
1 | Nc1ccn([C@@H]2O[C@H](CO)[C@@H](O)C2(F)F)c(=O)n1 [gemcitabine] + O=S(=O)(c1ccccc1)N(CC(F)(F)F)c1ccc(C(O)(C(F)(F)F)C(F)(F)F)cc1 [T0901317] (first compound 0.0004 µM, partner dose 1.4 µM) | 74
2 | Nc1ncn([C@H]2C[C@H](O)[C@@H](CO)O2)c(=O)n1 [decitabine] + O=C(Nc1ccccc1)c1cc([N+](=O)[O-])ccc1Cl [GW9662] (first compound 0.1 µM, partner dose 2 µM) | 51.7
6 | Nc1ccn([C@@H]2O[C@H](CO)[C@@H](O)C2(F)F)c(=O)n1 [gemcitabine] + CCc1ccc(CCOc2ccc(CC3SC(=O)NC3=O)cc2)nc1 [pioglitazone] (first compound 0.0004 µM, partner dose 2 µM) | 59.5

Additional records follow:

Row | SMILES | cleaved PARP positive nuclei fraction [%]
17 | Cn1c(=O)n(-c2ccc(C(C)(C)C#N)cc2)c2c3cc(-c4cnc5ccccc5c4)ccc3ncc21 + CC(C)CCN1c2nc(Nc3cc(F)c(O)c(F)c3)ncc2N(C)C(=O)C1C [BID1870] (first compound 0.004 µM, partner dose 0.2 µM) | 46.1
18 | CN1CCN(c2ccc3nc(-c4c(N)c5c(F)cccc5[nH]c4=O)[nH]c3c2)CC1 [Dovitinib] + Oc1cc(-c2nc(-c3ccccc3)[nH]c2-c2ccncc2)ccc1Cl [L779450] (first compound 0.1 µM, partner dose 0.2 µM) | 171
19 | Nc1nc(F)nc2c1ncn2[C@@H]1O[C@H](CO)[C@@H](O)[C@@H]1O [fludarabine] + COc1cc(N2CCC(N3CCN(C)CC3)CC2)ccc1Nc1ncc(Cl)c(Nc2ccccc2S(=O)(=O)C(C)C)n1 [NVP-TAE684] (first compound 0.2 µM, partner dose 0.08 µM) | 92.3
20 | Nc1ncn([C@H]2C[C@H](O)[C@@H](CO)O2)c(=O)n1 [decitabine] + COc1ccc(-c2ccc3c(N4CCOCC4)nc(N4C[C@@H](C)O[C@@H](C)C4)nc3n2)cc1CO [KU0063794] (first compound 0.1 µM, partner dose 0.02 µM) | 116
21 | CCCS(=O)(=O)Nc1ccc(F)c(C(=O)c2c[nH]c3ncc(Cl)cc23)c1F + Oc1cc(-c2nc(-c3ccccc3)[nH]c2-c2ccncc2)ccc1Cl [L779450] (first compound 0.08 µM, partner dose 0.2 µM) | 117
22 | C=C(c1ccc(C(=O)O)cc1)c1cc2c(cc1C)C(C)(C)CCC2(C)C [Bexarotene] + CCCCCCCCCCCC1=C(O)C(=O)C=C(O)C1=O [Embelin] (first compound 2 µM, partner dose 1.2 µM) | 49.1
23 | O=C(O)c1ccc2c(c1)nc(Nc1cccc(Cl)c1)c1ccncc12 + Oc1nc(-c2ccc(C(F)(F)F)cc2)nc2c1CSCC2 [XAV939] (first compound 0.4 µM, partner dose 2 µM) | 24.7
24 | C=C(c1ccc(C(=O)O)cc1)c1cc2c(cc1C)C(C)(C)CCC2(C)C [Bexarotene] + COC(=O)c1sccc1S(=O)(=O)Nc1ccc(Nc2ccccc2)cc1OC [GSK0660] (first compound 2 µM, partner dose 1 µM) | 20.2
25 | Nc1nc(F)nc2c1ncn2[C@@H]1O[C@H](CO)[C@@H](O)[C@@H]1O [fludarabine] + COc1ccc2c(c1)CCC1C2CCC2(C)C(NCCCCCCN3C(=O)C=CC3=O)CCC12 [U73122] (first compound 0.2 µM, partner dose 0.4 µM) | 111
26 | O=C(O)[C@@H]1[O][Sb](=[O])([O][Sb]2(=[O])[O][C@H]([C@H](O)CO)[C@H](O)[C@H](C(=O)O)[O]2)[O][C@H]([C@H](O)CO)[C@@H]1O (some centres not stated) [stibogluconate] + O=C(O)C(=O)Nc1sc2c(c1C(=O)O)CCNC2 [TCS401] (first compound 2 µM, partner dose 1.66667 µM) | 104
27 | C=C(c1ccc(C(=O)O)cc1)c1cc2c(cc1C)C(C)(C)CCC2(C)C [Bexarotene] + Cc1cc([N+](=O)[O-])ccc1NS(=O)(=O)c1cc(Cl)ccc1Cl [FH535] (first compound 2 µM, partner dose 1 µM) | 80.6
28 | C=C(c1ccc(C(=O)O)cc1)c1cc2c(cc1C)C(C)(C)CCC2(C)C [Bexarotene] + COc1ccc(COc2ccc(Cc3cnc(N)nc3N)cc2OC)cc1 [GW2580] (first compound 2 µM, partner dose 1 µM) | 98.6
29 | Nc1nc(F)nc2c1ncn2[C@@H]1O[C@H](CO)[C@@H](O)[C@@H]1O [fludarabine] + O=C(Nc1ccccc1)c1cc([N+](=O)[O-])ccc1Cl [GW9662] (first compound 0.2 µM, partner dose 2 µM) | 30.8
30 | CC(C)C[C@H](NC(=O)[C@H](Cc1ccccc1)NC(=O)c1cnccn1)B(O)O [Bortezomib] + COC(=O)c1sccc1S(=O)(=O)Nc1ccc(Nc2ccccc2)cc1OC [GSK0660] (first compound 0.001 µM, partner dose 1 µM) | 66.9
31 | CN1CCN(c2ccc3nc(-c4c(N)c5c(F)cccc5[nH]c4=O)[nH]c3c2)CC1 [Dovitinib] + COc1ccc(COc2ccc(Cc3cnc(N)nc3N)cc2OC)cc1 [GW2580] (first compound 0.1 µM, partner dose 1 µM) | 28.4
32 | Cn1c(=O)n(-c2ccc(C(C)(C)C#N)cc2)c2c3cc(-c4cnc5ccccc5c4)ccc3ncc21 + Cc1cc([N+](=O)[O-])ccc1NS(=O)(=O)c1cc(Cl)ccc1Cl [FH535] (first compound 0.004 µM, partner dose 1 µM) | 50.1

Source: the supplement of paper PMC4604168 (melanoma cell lines)
